Measurements reported in PubChem BioAssay AID602196 (INSERM, 2012).
Shown is an unselected part of about 23,000 reagents. 455 of them (2%) count as active. 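Active includes both protection and sensitisation; some change values fall well beyond the stated -50 to +50 range.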 No sequences are given here. The record does not give: the amount of reagent.

Assay: 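Genes whose knock-down alters cisplatin killing of lung cancer cells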
Cells: human A549 lung cancer cells
Knock-down reagent: siRNA pair against human genes
Time to read-out: 48 h transfection before cisplatin; time from cisplatin to read-out not stated
Challenge: cisplatin at a dose killing half of control-siRNA cells; exact dose and duration not given
Detection: 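Shift in cisplatin death relative to control siRNA, from -50 (all cells die) to +50 (no cells die); siRNAs harmful on their own scored 0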
Direction: two-siRNA summed score (-2 to +2): higher = both siRNAs protect from cisplatin killing; -2 means both sensitise; mean protection from cisplatin (shift in death) and protection from cisplatin (shift in death), siRNA C and protection from cisplatin (shift in death), siRNA D: higher = protection from cisplatin killing
Rule for the call: 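Each siRNA scores 0 if harmful alone by LDH or WST-1, otherwise +1 if it reduces and -1 if it increases cisplatin killing; a gene is active when both siRNAs agree (sum +2 or -2)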
Meaning of the calls: active = both siRNAs shift cisplatin killing the same way; inactive = no consistent shift, or siRNA harmful alone

| Target gene | two-siRNA summed score (-2 to +2) | mean protection from cisplatin (shift in death) (%) | protection from cisplatin (shift in death), siRNA C (%) | protection from cisplatin (shift in death), siRNA D (%) | activity call |
| --- | --- | --- | --- | --- | --- |
| PAF1 | 0 | 4.4 | 6.1 | 2.7 | inactive |
| LOC126772 | 0 | -5.9 | 1.3 | -13.1 | inactive |
| ZNF563 | 0 | 7.5 | 11.7 | 3.3 | inactive |
| OPRD1 | 1 | 8.1 | -7.5 | 23.6 | inactive |
| RPS20 | 0 | 36.5 | 29.6 | 43.5 | inactive |
| ZNF223 | 1 | 13.6 | 13.9 | 13.2 | inactive |
| LMX1A | 0 | -10.8 | -14 | -7.7 | inactive |
| IGHV4OR15-8 | 1 | 11.8 | 15.4 | 8.1 | inactive |
| MTAP | -2 | -12.2 | -13.6 | -10.8 | active |
| TM4SF19 | 0 | -0.3 | -0.6 | 0 | inactive |
| HIRIP3 | -2 | -18.5 | -13.1 | -23.8 | active |
| WDR86 | -1 | -6.9 | -15.6 | 1.9 | inactive |
| DDX4 | 1 | 6.8 | -2.8 | 16.4 | inactive |
| LOC199899 | 0 | 8.1 | 1.5 | 14.7 | inactive |
| OR6C6 | 0 | 6.8 | 10.3 | 3.3 | inactive |
| LOC389398 | 1 | 18.8 | 20.6 | 16.9 | inactive |
| NKX3-1 | 0 | -0.5 | -8.6 | 7.5 | inactive |
| VCPIP1 | 0 | -3.1 | 10.4 | -16.5 | inactive |
| NOX1 | 0 | -8.4 | -15.6 | -1.2 | inactive |
| RPL18 | 0 | 22.7 | 26.9 | 18.4 | inactive |
| PIGC | 0 | 1.9 | 0 | 3.8 | inactive |
| RTL9 | 0 | -12.6 | -21.5 | -3.7 | inactive |
| GRWD1 | 0 | -7 | -1.2 | -12.9 | inactive |
| LOC387927 | 0 | 16.9 | -9.8 | 43.7 | inactive |
| LOC345643 | 0 | -2.7 | -2.1 | -3.2 | inactive |
| MFAP3L | 0 | 8 | 9.3 | 6.6 | inactive |
| KLHL5 | 0 | 2.7 | 4.9 | 0.4 | inactive |

Active calls (from the list above):
| Target gene | two-siRNA summed score (-2 to +2) | mean protection from cisplatin (shift in death) (%) | protection from cisplatin (shift in death), siRNA C (%) | protection from cisplatin (shift in death), siRNA D (%) | activity call |
| --- | --- | --- | --- | --- | --- |
| MTAP | -2 | -12.2 | -13.6 | -10.8 | active |
| HIRIP3 | -2 | -18.5 | -13.1 | -23.8 | active |

The results go on:
| Target gene | two-siRNA summed score (-2 to +2) | mean protection from cisplatin (shift in death) (%) | protection from cisplatin (shift in death), siRNA C (%) | protection from cisplatin (shift in death), siRNA D (%) | activity call |
| --- | --- | --- | --- | --- | --- |
| ATP5F1A | 0 | 1.2 | -2.5 | 4.9 | inactive |
| ABTB2 | 0 | -1.6 | -10.9 | 7.6 | inactive |
| MCRIP1 | 1 | 18.3 | 35.8 | 0.8 | inactive |
| KLHDC2 | 0 | 5.1 | -0.6 | 10.8 | inactive |
| KLK2 | 0 | 10.6 | 17.1 | 4 | inactive |
| LOC388642 | 0 | 1.6 | -8.9 | 12 | inactive |
| THOC6 | 0 | -0.2 | 4.1 | -4.5 | inactive |
| PPP1CB | 0 | 8.9 | 6.2 | 11.7 | inactive |
| FCRL4 | 0 | 10 | 7.9 | 12.1 | inactive |
| LOC389654 | 0 | -0.2 | -1.7 | 1.2 | inactive |
| CLPTM1L | 0 | -3 | -15.3 | 9.3 | inactive |
| VN1R4 | 0 | -1.2 | -3.6 | 1.2 | inactive |
| LOC389757 | 0 | 4.7 | -2.1 | 11.6 | inactive |
| RAB34 | 0 | 23.3 | -2.4 | 49.1 | inactive |
| SPCS3 | 0 | 5 | -2.1 | 12 | inactive |
| RUSC1 | 0 | 0.3 | 2.4 | -1.9 | inactive |
| LOC392197 | 0 | -4.4 | 7 | -15.7 | inactive |
| PKHD1 | 0 | -1.3 | -5.6 | 3 | inactive |
| TMEM245 | 1 | 6.1 | -6.4 | 18.6 | inactive |
| RNASEK | 0 | 0.9 | -5.1 | 6.9 | inactive |
| UNQ5810 | 0 | 8.4 | 11.4 | 5.4 | inactive |
| LOC440036 | 0 | 4.7 | 3.1 | 6.3 | inactive |
| IFNA13 | -1 | -19.2 | -16.3 | -22.1 | inactive |
| GD:PTPRD | 0 | 29.8 | 29.3 | 30.2 | inactive |
| KCNK5 | 0 | -21.2 | -29.1 | -13.3 | inactive |
| ZNRF4 | 0 | -7.2 | -12.7 | -1.7 | inactive |
| KIF20B | 0 | -0.9 | -3.5 | 1.6 | inactive |
| LRFN1 | 0 | 14.4 | 14.3 | 14.5 | inactive |
| STK10 | 0 | -0.6 | 12.9 | -14 | inactive |
| PAQR6 | -1 | -12.6 | -19.9 | -5.2 | inactive |
